# Reference: patent publication US20160067269A1, “Miltefosin Or Perifosin For Use In The Treatment of IBD” (ACADEMISCH MEDISCH CENTRUM, priority 2013, published 2016)
# For at least one compound, name, drawing or mass did not settle the structure.
# System: Peripheral blood lymphocytes
# Experiment: lymphocyte proliferation, thymidine incorporation assay
# Assay type: cell-based
# Details: miltefosine 61 μM; stimulated with 100 ng/ml SEB for 24 hours
smiles,measurement,value
"CCCCCCCCCCCCCCCCOP(=O)([O-])OCC[N+](C)(C)C [miltefosine, hexadecyl phosphocholine]",proliferation of lymphocytes (thymidine incorporation),successfully suppresses proliferation
